Assay results: PMC7819943, “Rice protein-binding microarrays: a tool to detect cis-acting elements near promoter regions in rice”
The other results are listed elsewhere or left out.

Sequences of proteins named here, by UniProt entry; tags and fusion partners are left off.
UniProt Q0JBA9, entry or part of it: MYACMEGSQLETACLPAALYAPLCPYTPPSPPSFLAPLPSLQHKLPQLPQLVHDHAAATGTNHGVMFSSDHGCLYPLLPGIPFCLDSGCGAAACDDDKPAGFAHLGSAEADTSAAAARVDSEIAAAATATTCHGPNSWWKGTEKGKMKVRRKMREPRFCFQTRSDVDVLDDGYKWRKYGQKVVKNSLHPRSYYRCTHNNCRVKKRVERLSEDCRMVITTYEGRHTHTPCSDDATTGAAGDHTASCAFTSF

target: OsWRKY34 (Oryza sativa, UniProt Q0JBA9 1-250); experiment: protein-binding microarray (RPBM); PBS, 2% BSA, 51.3 ng/ul salmon testes DNA, 50 uM zinc acetate, 200 nM TF, 25 C, 1 h; high values mean tight binding; details: protein: recombinant; tags: N-terminal polyhistidine and DsRed monomer fusion (pET32a); label: CyDye5-dUTP incorporated in the synthesized complementary strand; 3' TTTTT single-stranded linker to array surface; dsDNA, one strand shown
In short: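 The binding signal for each feature is its fluorescence intensity in arbitrary units. An Axon 4000B scanner was used to read a custom Agilent array that had been made double-stranded with Cy5-dUTP primer extension, blocked with 2% BSA, incubated at 25 °C for 1 h with 200 nM protein in PBS, 2% BSA, salmon testes DNA and 50 µM zinc acetate, and washed. The protein was an N-terminal polyhistidine–DsRed transcription factor fusion from E. coli BL21-CodonPlus, purified on Ni–NTA.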

Sequence	binding signal
AGCTTAACACGCGCCACTTGCCCCTATTTAGCCGCGCCATCGGAGTCACCTAGTGCAG	9920 fluorescence intensity (a.u.)
TTCGTGGTTTCGTTCAGCTTGATTTCGCTTGACACATCGACGGAGTCACCTAGTGCAG	9110 fluorescence intensity (a.u.)
CTCCGCTCACCAAGCCCTCAAATCTCACCCGCTGCCTCCACGGAGTCACCTAGTGCAG	8620 fluorescence intensity (a.u.)
CCAATCACTGTTCGGCGTTCTAATCTGTTTTTTTTCTCCTCGGAGTCACCTAGTGCAG	11100 fluorescence intensity (a.u.)
CTGCTCAGCTGCTTCTGCCATGATGTCTCCCTGTGTTTTCCGGAGTCACCTAGTGCAG	8270 fluorescence intensity (a.u.)
TTGTCCCGTCACTCGTTTCTTTTTTTATCCAGTAATTATTCGGAGTCACCTAGTGCAG	12200 fluorescence intensity (a.u.)
TTTGTACCAGCTGCCTTCTTTCCACCAGTCGACGACGACACGGAGTCACCTAGTGCAG	11500 fluorescence intensity (a.u.)
GAGTAATGAGGGGCTGTTTAGATGGGACTAAAAACTTTTTCGGAGTCACCTAGTGCAG	8450 fluorescence intensity (a.u.)
AGTTCATCACAGCTTCCCACACTCGTTTTCCCGTCTCGATCGGAGTCACCTAGTGCAG	8580 fluorescence intensity (a.u.)
TTTAGCTGTTCTTTTCAACTCGTACGAAATTTCCTTAGATCGGAGTCACCTAGTGCAG	9170 fluorescence intensity (a.u.)
TTCCTAATTTACTACTACATCTACATGCAAGCTTTGCTCCCGGAGTCACCTAGTGCAG	8870 fluorescence intensity (a.u.)
TCATAGGGGTAGTGTTTGCGTGTGTATTCATAGGGGCGAGCGGAGTCACCTAGTGCAG	8500 fluorescence intensity (a.u.)
ACATTCTCCGCGCCAACACGCATTAACGTTCTGGAACTCTCGGAGTCACCTAGTGCAG	13100 fluorescence intensity (a.u.)
CATTTACATTTGGTTTCTTGAAACAGAGCAATCTATAGCACGGAGTCACCTAGTGCAG	8900 fluorescence intensity (a.u.)
TGTCCTTTGTTGTGGTGTGGTGGTGGGCATCTGGACCGTTCGGAGTCACCTAGTGCAG	29700 fluorescence intensity (a.u.)
CCTTCTGCTGCCCTCCCCTCTCTCTCTCTTTCGTTTTTTTCGGAGTCACCTAGTGCAG	10900 fluorescence intensity (a.u.)
GTTGTTTGCATTAATTCATACCTAGGAAGTTTTTTTTAACCGGAGTCACCTAGTGCAG	8940 fluorescence intensity (a.u.)
TATCTGGTTTTGGGGTTCAGGGCCATGAATTAGATTCGGGCGGAGTCACCTAGTGCAG	9940 fluorescence intensity (a.u.)
CCATCTCCATGACAGCTTAGTTAGTTTCTCTGGTTTGCTACGGAGTCACCTAGTGCAG	8070 fluorescence intensity (a.u.)
CTAGTTTTGGTCTTGTGATAGGTTATTTGCTTACGATTATCGGAGTCACCTAGTGCAG	9430 fluorescence intensity (a.u.)
AAGACAGCCGCTACGCACACACACGTTTTGTTTATTGCAGCGGAGTCACCTAGTGCAG	9860 fluorescence intensity (a.u.)

Sequence	binding signal
CATTTCTTTTTGCGCCTGGCATATCCCTCGCGCGACTAACCGGAGTCACCTAGTGCAG	10900 fluorescence intensity (a.u.)
GCTGTCGATTTCTCCCTCCTTCCTGCCTGTTCTTGATTTTCGGAGTCACCTAGTGCAG	8630 fluorescence intensity (a.u.)
CAGGACCACTTTCTTTCTCCCATCGAGTTCGCGAGGAGGACGGAGTCACCTAGTGCAG	8830 fluorescence intensity (a.u.)
ACTGAGTACTGTTCGGTTGGGTCTGGCATCGGATGTTTCCCGGAGTCACCTAGTGCAG	8340 fluorescence intensity (a.u.)
CTCCACTACATTTTGTACGCACCAACACTGGCAAACACTACGGAGTCACCTAGTGCAG	9850 fluorescence intensity (a.u.)
AAAGACCTCCAACCTTGTATTTGACCTTACTCCATCCGTCCGGAGTCACCTAGTGCAG	10600 fluorescence intensity (a.u.)
GCAATTAGCATCTATTATGATACCAACAAATTTTCGTTTTCGGAGTCACCTAGTGCAG	8830 fluorescence intensity (a.u.)
ATTAATTAGACTCAGAAGATTTGTCTCGCGATTTCCATGCCGGAGTCACCTAGTGCAG	9240 fluorescence intensity (a.u.)
TCGTGGGAAGGGCAAAGAAAAGACGGGGTGGTGGGCATCGCGGAGTCACCTAGTGCAG	8420 fluorescence intensity (a.u.)
GGGCCCCTTTGAATCACAGGGTAGAAAAAACATTGGAATACGGAGTCACCTAGTGCAG	11600 fluorescence intensity (a.u.)
CTTACCAAATTTTGACTATTTAACAATATTATCAAGTTTTCGGAGTCACCTAGTGCAG	8100 fluorescence intensity (a.u.)
ACGTTTTGCCCTATTTTTGCATGCCTACCGATGTACGTGCCGGAGTCACCTAGTGCAG	8270 fluorescence intensity (a.u.)
GGTTTGGGTAGTCCTCTCCGTGGGCCGGCTCCTGCCTTGCCGGAGTCACCTAGTGCAG	14600 fluorescence intensity (a.u.)
GACTGGGCCGTTGACCAGACGTGTACCCCACCGGCCAGTCCGGAGTCACCTAGTGCAG	9290 fluorescence intensity (a.u.)
ATAAATCACGTGTCTCTTCTCTTGGTTTGCACATTCTTGCCGGAGTCACCTAGTGCAG	11700 fluorescence intensity (a.u.)
TGTAAACTGTGCAATTGGTTTTTTCTTCACATTTATTGCTCGGAGTCACCTAGTGCAG	8400 fluorescence intensity (a.u.)
TTGGTTAGGAACTTGGTATGGTAGGGAGTTGTTGTATTGTCGGAGTCACCTAGTGCAG	8670 fluorescence intensity (a.u.)
ATAACAACCCGGCCCCGCCGCCACTCCATCCCCGACTCACCGGAGTCACCTAGTGCAG	8520 fluorescence intensity (a.u.)
ATCAAATCCAATCCAGGCGGTCCTCGAATTTCCTCCCTTGCGGAGTCACCTAGTGCAG	8060 fluorescence intensity (a.u.)
ATTAGCGGAGTGCGTGAGGGCGGTGTTGTATGTGTACCTACGGAGTCACCTAGTGCAG	8760 fluorescence intensity (a.u.)
TTTATATGACCGATCTTCTGTCCTGTCCAATAACAACGATCGGAGTCACCTAGTGCAG	8060 fluorescence intensity (a.u.)

Sequence	binding signal
AGCTGCCACAAGCCGAAGGCACGTTGACTTAAAAGAAGCCCGGAGTCACCTAGTGCAG	10700 fluorescence intensity (a.u.)
TTTTCCCAACTATATACAGTTTCTAACCCTTGTTTTTTAGCGGAGTCACCTAGTGCAG	8570 fluorescence intensity (a.u.)
GGGTGAAAATGTCTGGTTTTGTGGTTTAAGGGTGTAATTCCGGAGTCACCTAGTGCAG	8700 fluorescence intensity (a.u.)
AACAACTACTCGTCTTCACTTGCCTGGTTACGAATTGAGCCGGAGTCACCTAGTGCAG	9010 fluorescence intensity (a.u.)
GCCCGCACCATCCCCTTCCTCGTCCACAACCCCGACATCGCGGAGTCACCTAGTGCAG	8290 fluorescence intensity (a.u.)
GTGTCATTCTCCTCACACGCCGGTCTCCATGAGCGAGTTTCGGAGTCACCTAGTGCAG	8110 fluorescence intensity (a.u.)
GAGGGTGGAGGTTGGGTGACCAAGAGTTTATTAATGACAACGGAGTCACCTAGTGCAG	10400 fluorescence intensity (a.u.)
GGACCTTATTTTTGTAGCGTGTTTATTTGGGAGTAACTTACGGAGTCACCTAGTGCAG	12100 fluorescence intensity (a.u.)
CCTATGAAGAAACTTACGCTGACGGCTGACCTAAACGTGCCGGAGTCACCTAGTGCAG	11000 fluorescence intensity (a.u.)
CTCTGCACATGGCGCAACATCTATTTTGTACTATTAATTGCGGAGTCACCTAGTGCAG	9520 fluorescence intensity (a.u.)
TGATTTTTTGACAAACATTTGACCTTTCGTCTTATTTAAACGGAGTCACCTAGTGCAG	8620 fluorescence intensity (a.u.)
GATAGTAGTTCTTGTCTTGTGGTGCGATCCGGTTTGTCTTCGGAGTCACCTAGTGCAG	8890 fluorescence intensity (a.u.)
TACATATCCGTATTTGAGTCGGTTTTTAAGGTCGTTCACTCGGAGTCACCTAGTGCAG	8560 fluorescence intensity (a.u.)
TCGGTCTGGTGTATTTTGTGGTGCAATTTAACTCCATAAACGGAGTCACCTAGTGCAG	9100 fluorescence intensity (a.u.)
ACCCGCACGTCTTCCGCGGCCACGCCACCGTCGATCCCCGCGGAGTCACCTAGTGCAG	8620 fluorescence intensity (a.u.)
CAGCAAAAAGGGATTTTTTTTTCTATTCATCTTTGTTAGTCGGAGTCACCTAGTGCAG	8390 fluorescence intensity (a.u.)
CGGTTTAATTAGGCTTAAAAGATTCGTCTCGCAAGTTTTTCGGAGTCACCTAGTGCAG	9820 fluorescence intensity (a.u.)
CACATTTTCTTTTGGGACTTCAGATATTCCTTTTTACATGCGGAGTCACCTAGTGCAG	9800 fluorescence intensity (a.u.)
CGGGATGGTGACTACGCCAAGGTCATGCTTGTTTTTGATACGGAGTCACCTAGTGCAG	9810 fluorescence intensity (a.u.)
TGTTACGTATCAAACCTATCCCTACCCACACTATTGGCCTCGGAGTCACCTAGTGCAG	9260 fluorescence intensity (a.u.)
TTATTGTTTTTATTGTCTTTTTTTCTTTATATTTCCAAAACGGAGTCACCTAGTGCAG	11400 fluorescence intensity (a.u.)

2 records picked at random from those above:
Sequence	binding signal
TCGGTCTGGTGTATTTTGTGGTGCAATTTAACTCCATAAACGGAGTCACCTAGTGCAG	9100 fluorescence intensity (a.u.)
CTCCACTACATTTTGTACGCACCAACACTGGCAAACACTACGGAGTCACCTAGTGCAG	9850 fluorescence intensity (a.u.)

Laid out differently: entries from further up.
GGACCTTATTTTTGTAGCGTGTTTATTTGGGAGTAACTTACGGAGTCACCTAGTGCAG
  binding signal: 12100 fluorescence intensity (a.u.)
CCTATGAAGAAACTTACGCTGACGGCTGACCTAAACGTGCCGGAGTCACCTAGTGCAG
  binding signal: 11000 fluorescence intensity (a.u.)
CTCTGCACATGGCGCAACATCTATTTTGTACTATTAATTGCGGAGTCACCTAGTGCAG
  binding signal: 9520 fluorescence intensity (a.u.)
TGATTTTTTGACAAACATTTGACCTTTCGTCTTATTTAAACGGAGTCACCTAGTGCAG
  binding signal: 8620 fluorescence intensity (a.u.)

The list continues.

Sequence	binding signal
CATTTTCTTGGTTTGGTCTTTTTTATTGTTGGGTGTGTTTCGGAGTCACCTAGTGCAG	15500 fluorescence intensity (a.u.)
GCTGTCGTCCCTGCTGTTCTTGGTGTGCTTCTTCACTGTCCGGAGTCACCTAGTGCAG	13600 fluorescence intensity (a.u.)
ACGCTGATTCAATTGTCATCCAATTTCTCGATTTATCTGTCGGAGTCACCTAGTGCAG	11400 fluorescence intensity (a.u.)
TATATACTTTCATGGGTCTATATTTATATGTATGTATACACGGAGTCACCTAGTGCAG	8690 fluorescence intensity (a.u.)
TGTTGTTCTGTTTTCATAATGGAGATTGCCATGCTTCACACGGAGTCACCTAGTGCAG	8570 fluorescence intensity (a.u.)
ATTCACATTCCATTCCCATCCGGTTGTTCTTGCATGTTCTCGGAGTCACCTAGTGCAG	14700 fluorescence intensity (a.u.)
GCCGTCTCGCCTCCTATTCTGTCGCGACGCCACCACTGCTCGGAGTCACCTAGTGCAG	11000 fluorescence intensity (a.u.)
ACCTGAATGACTGAATCCTATCTTGACGCTGCAATCTGGACGGAGTCACCTAGTGCAG	8190 fluorescence intensity (a.u.)
AACCGGCGGCACGAGGTGGGGAGGGAGTGGAGGGGCCCGACGGAGTCACCTAGTGCAG	9170 fluorescence intensity (a.u.)
TACGGTGAACTACTACGCTTCAATCAATTTCCCTTTTCTTCGGAGTCACCTAGTGCAG	10800 fluorescence intensity (a.u.)
GCGTCGCCTCGTGACCTCCGCTTCTCCGCCGCCGACATCGCGGAGTCACCTAGTGCAG	9660 fluorescence intensity (a.u.)
ACTGTTCGGTATTGCTGTTTCGTTATGTCTCGCGCAACGACGGAGTCACCTAGTGCAG	9770 fluorescence intensity (a.u.)
TATTGGGGCTGCCGATTGCACTGCACAGGTTCATTTCTTCCGGAGTCACCTAGTGCAG	9320 fluorescence intensity (a.u.)
AAGGTCGTGTATATTTCTATCATCCAATTATGTCACAACACGGAGTCACCTAGTGCAG	8820 fluorescence intensity (a.u.)
CTCTCTCTCTCTCTCTCTCTCTCTCTCTCTCCTCCCAAATCGGAGTCACCTAGTGCAG	10300 fluorescence intensity (a.u.)
GGTTGAGGGATGTGATTTATCGAGGGTGAGAGTTGAGGGACGGAGTCACCTAGTGCAG	9110 fluorescence intensity (a.u.)
GCCAGTCTGGGTGTTGGTCTGCTTCTTGTTCTGGTGCCGTCGGAGTCACCTAGTGCAG	11300 fluorescence intensity (a.u.)
ATCCTCTAAGTTTTTTCGCTAGCCAAGTCCACTACTACCTCGGAGTCACCTAGTGCAG	10000 fluorescence intensity (a.u.)
CCCATCCCCATCCCGATCCCGCCCAACTCGCGCCTCCTTCCGGAGTCACCTAGTGCAG	8820 fluorescence intensity (a.u.)
TTTGCTGGTGTTATTCCCCGTTCAAAATCTTCTCATTTTCCGGAGTCACCTAGTGCAG	11900 fluorescence intensity (a.u.)
TCTTCATGTTACATAATTCTCCTTGTTTAAGTCCATATAACGGAGTCACCTAGTGCAG	9140 fluorescence intensity (a.u.)
